# Reference: the supplement of paper PMC7024190
# Counter-ions that a name gives are not always drawn. The list shows a part of the results. Repeats in this data set agree poorly, so a single value says little.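 The cells were human embryonic kidney cells carrying a Renilla luciferase gene, driven by the HSV-TK promoter, on a plasmid put in briefly by transfection. This is the first-round screen of about ten thousand compounds, looking for ones that raise reporter output.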
# Test system: HEK 293FT
# Assay: log relative Renilla luciferase luminescence (reporter expression vs reference, reference not stated) (log (base not stated)); higher = higher recombinant reporter expression
# Conditions: 10 µM; time after transfection 48 h
row,SMILES,log
1,CC(=O)OCCNC(=O)c1cccnc1,-0.141
2,O=c1[nH]c(=O)n([C@H]2C[C@H](O)[C@@H](CO)O2)cc1Br [Broxuridine],0.227
3,CC(=O)OCC(=O)[C@@]1(O)CC[C@H]2[C@@H]3CCC4=CC(=O)C=C[C@]4(C)[C@H]3C(=O)C[C@@]21C [Prednisone acetate],0.00722
4,COc1cc2nc(N3CCN(C(=O)C4COc5ccccc5O4)CC3)nc(N)c2cc1OC (stereo not given) [Doxazosin Mesylate],0.0416
5,CC(=O)Nc1ccc(S(=O)(=O)Nc2ccc(S(N)(=O)=O)cc2)cc1 [Acetyldisulfanilamide],0.0918
6,O=C(O)CCC(=O)Nc1ccc(S(=O)(=O)Nc2nccs2)cc1 [Succinylsulfathiazole],0.0918
7,NCc1ccc(S(N)(=O)=O)cc1 [Mafenide],-0.258
8,COc1cc(C)c(C(=O)Oc2cc(C)c(C(=O)O)c(O)c2)c(O)c1 [Evernic acid],0.151
9,NC(=O)N1CCCC1=O [Squamolone],-0.0767
10,CN(C)CC/C=C1/c2ccccc2Sc2ccc(Cl)cc21 [Chlorprothixene],0.0785
11,CCOC(=O)c1cnc2cc(OCC(C)C)c(OCC(C)C)cc2c1O [Buquinolate],-0.241
12,COc1ccnc(C[S+]([O-])c2nc3cc(OC(F)F)ccc3[nH]2)c1OC (stereo not given) [Pantoprazole Sodium],-0.748
13,O=C1OCCN1/N=C/c1ccc([N+](=O)[O-])o1 [Furazolidone],0.00428
14,Cc1c(CCCl)c(Cl)n2c(nc3ccccc32)c1C#N,-0.224
15,CC(=O)OCc1c(COC(C)=O)[n+](=O)c2ccccc2n1[O-] [Quinoxidine],0.125
16,NC(N)=NC(N)=Nc1cccc(Cl)c1 [m-Chlorophenylbiguanide],-0.0464
17,NC(=O)N1c2ccccc2CCc2ccccc21 [Dihydrocarbamazepine],-0.632
18,Cc1cc(C)nc(Nc2nc3ccc([N+](=O)[O-])cc3[nH]2)n1,-0.0438
19,CCC[C@H](N[C@@H](C)C(=O)N1[C@H](C(=O)O)C[C@@H]2CCCC[C@@H]21)C(=O)O [Perindopril tert-Butylamine salt],-0.274
20,CC(=O)OCC(=O)[C@@]1(O)CC[C@H]2[C@@H]3CCC4=CC(=O)C=C[C@]4(C)[C@H]3[C@@H](O)C[C@@]21C [Prednisolone acetate],-0.193

row,SMILES,log
1,C[C@]12C=CC(=O)N[C@@H]1CC[C@@H]1[C@@H]2CC[C@]2(C)[C@@H](C(=O)Nc3cc(C(F)(F)F)ccc3C(F)(F)F)CC[C@@H]12 [Dutasteride],-0.0405
2,O=C(COc1ccc(Cl)cc1)N1CCN(Cc2ccc3c(c2)OCO3)CC1 [Fipexide],0.0884
3,COc1cc2c(O)c3c(c(-c4ccc5c(c4)OCO5)c2cc1OC)C(=O)OC3 [Diphyllin],-0.255
4,c1ccc2[nH]c(-c3cscn3)nc2c1 [Tiabendazole],0.0555
5,O=C(O)c1cc(=O)cc(C(=O)O)o1 [Chelidonic acid],0.00309
6,CCCc1nn(C)c2c(=O)[nH]c(-c3cc(S(=O)(=O)N4CCN(C)CC4)ccc3OCC)nc12 [Sildenafil Citrate],-0.29
7,Cc1ccnc(NS(=O)(=O)c2ccc(N)cc2)n1 [Sulfamerazine],0.097
8,C=CCc1ccc(O)c(O)c1 [Hydroxychavicol],0.0586
9,O=C(O)c1cccc(C(=O)O)n1 [Dipicolinic acid],0.106
10,O=C(O)Cn1cc(F)c(=O)[nH]c1=O [Fluorouracilacetate],-0.163
11,O=C1c2ccccc2C(=O)C1c1cccc2ccccc12 [Naphthylin],0.0427
12,O[Si](CCCN1CCCCC1)(c1ccccc1)C1CCCCC1 (stereo not given) [Hexahydrosiladifenidol],0.0165
13,CCC(NC(C)C)C(O)c1ccc(O)c2[nH]c(=O)ccc12 (stereo not given) [Procaterol Hydrochloride],0.0507
14,CC1(C)S[C@@H]2[C@H](NC(=O)COc3ccccc3)C(=O)N2[C@H]1C(=O)O [Phenoxymethylpenicillin],-0.0398
15,O=C1CN(CCN2CC(=O)NC(=O)C2)CC(=O)N1,-0.289
16,C#Cc1cccc(Nc2ncnc3cc(OCCOC)c(OCCOC)cc23)c1 [Erlotinib Hydrochloride],-0.0491
17,COC1=C(OC)C(=O)C(C/C=C(\C)CC/C=C(\C)CC/C=C(\C)CC/C=C(\C)CC/C=C(\C)CC/C=C(\C)CC/C=C(\C)CC/C=C(\C)CC/C=C(\C)CCC=C(C)C)=C(C)C1=O [Coenzyme q10],0.0674
18,C[C@@H]1CN(c2c(F)c(F)c3c(=O)c(C(=O)O)cn(C4CC4)c3c2F)C[C@H](C)N1 [Orbifloxacin],0.084
19,COC(=O)C1=C(C)NC(C)=C(C(=O)OCCN2CCN(C(c3ccccc3)c3ccccc3)CC2)C1c1cccc([N+](=O)[O-])c1 (stereo not given) [Manidipine Dihydrochloride],-0.0418
20,C[C@@H]1O[C@@H](O[C@H]2[C@H](OC(=O)[C@]34CCC(C)(C)C[C@H]3C3=CC[C@@H]5[C@@]6(C)C[C@H](O)[C@@H]7O[C@@H]8O[C@H](CO)[C@@H](O)[C@H](O)[C@H]8O[C@@H]8OC[C@H](O)[C@H](O)[C@H]8OC(=O)CC(C)(O)CC(=O)OC[C@@]7(C)[C@@H]6CC[C@@]5(C)[C@]3(C)CC4)OC[C@H](O)[C@@H]2O)[C@H](O)[C@H](O[C@@H]2OC[C@@H](O)[C@H](O)[C@H]2O)[C@H]1O (stereo not given in full) [Tubeimoside A],-0.0101

# 3 successive entries out of the list so far, for reference:
row,SMILES,log
9,NC(=O)N1CCCC1=O [Squamolone],-0.0767
10,CN(C)CC/C=C1/c2ccccc2Sc2ccc(Cl)cc21 [Chlorprothixene],0.0785
11,CCOC(=O)c1cnc2cc(OCC(C)C)c(OCC(C)C)cc2c1O [Buquinolate],-0.241
